Tests used:
[1] = tested on: BT-16 cells; assay: Secondary screening; format: cell-based, human; conditions: read-out: BT-16 cells IC50; 2D culture, 72 h, MTT
[2] = tested on: BT-12 spheroids; assay: High-content imaging of 3D spheroid viability; format: cell-based; conditions: Homo sapiens, BT-12, 72 h, read-out: EC50, BT-12 spheroids
[3] = tested on: BT-12 cells; assay: Secondary screening; format: cell-based, human; conditions: read-out: BT-12 cells IC50; 2D culture, 72 h, MTT
[4] = tested on: BT-16 spheroids; assay: High-content imaging of 3D spheroid viability; format: cell-based; conditions: Homo sapiens, BT-16, 72 h, read-out: EC50, BT-16 spheroids

Structure (SMILES): COc1cc2c(c(OC)c1OC)-c1ccc(OC)c(=O)cc1[C@@H](NC(C)=O)CC2 [Colchicine]
- IC50 [1]: 56 nM
- EC50 [2]: 14 nM
- IC50 [3]: 16 nM
- EC50 [4]: 37 nM

Source: PMC12004362 (RSC Advances, 2025)
